# Experimental data from PubChem BioAssay AID1487 (National Center for Advancing Translational Sciences (NCATS), 2009).
# Some of the results follow. The main result of the screen is listed elsewhere. These columns were measured beside it and carry no call. Most of these compounds were active or inconclusive in the main read-out, so they are no random draw. Potencies come from curve fits of mixed quality, noted in brackets.
# Test: qHTS Assay for Modulators of Lamin A Splicing
# Details: HeLa LMNA splicing GFP/RFP minigene ratio, 48 h
# Method in brief: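 S3 HeLa cells stably expressing lamin A-EGFP splicing minigene plus DsRed2, 600 cells/well, 48 h compound exposure at 37C. Laser-scanning cytometry; analysed as GFP (500-530 nm)/RFP (575-640 nm) total intensity ratio; 0.5% DMSO vehicle.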
# [1] = measured here: GFP splicing reporter channel
# [2] = measured here: RFP viability control channel
Compound,AC50 [1],AC50 [2]
O=c1c2ccccc2nc(SCc2ccccc2)n1Cc1ccco1,"22.4 µM [rising, single point]","31.6 µM [rising, single point]"
C/C(=N/OCO/N=C(\C)c1ccccc1)c1ccccc1,–,"17.8 µM [rising, single point]"
CCC(=O)N1CCCc2cc(S(=O)(=O)N3CCCc4ccccc43)ccc21,–,"7.94 µM [rising, single point]"
COc1cc(NC(=O)C2CCCN(c3ncccn3)C2)cc(OC)c1 (stereo unspecified),–,"12.6 µM [rising, single point]"
CC(C)NC(=O)CSc1nnc(-c2ccc(C(C)(C)C)cc2)n1C,–,"11.2 µM [rising, partial curve, poor fit]"
CC1(C)CC(=O)C2=C(C1)N(Cc1cccnc1)C(=O)C2(NC(=O)c1ccc(F)cc1)C(F)(F)F (stereo unspecified),–,"35.5 µM [rising, single point]"
CCN(C(=O)c1ccco1)c1nc(CC(=O)Nc2ccc(Cl)cc2)cs1,"2 µM [rising, partial curve, poor fit]","12.6 µM [rising, partial curve]"
COc1ccc(Br)cc1C(=O)Nc1ccccc1N1CCN(C(=O)c2ccccc2)CC1,"11.2 µM [rising, partial curve, poor fit]",–
Cn1c(-c2c(N)n(CCc3ccccc3)c3nc4ccccc4nc23)nc2ccccc21,–,"31.6 µM [rising, single point]"
NC(=O)NC(=O)Cc1ccccc1,–,"0.000891 µM [rising, full curve, poor fit]"
COc1ccc(C(=O)Nc2cc(OC)c(Cl)cc2Cl)cc1,"0.0316 µM [rising, full curve, poor fit]","0.0112 µM [rising, full curve, poor fit]"
Cc1ccc(S(=O)(=O)N(CCO)Cc2cc3ccc(C)c(C)c3[nH]c2=O)cc1,"5.62 µM [rising, partial curve]",–
CN(C)/N=C/c1ccc(Sc2ccccc2[N+](=O)[O-])o1,"5.62 µM [rising, full curve, poor fit]","7.94 µM [rising, partial curve, poor fit]"
COc1ccccc1-n1c(-c2ccccc2)c[n+]2c1CCc1ccccc1-2,"6.31 µM [falling, partial curve]","35.5 µM [rising, single point]"
Cc1ccc(-c2noc(-c3ccccc3C(=O)N3CCCC3)n2)cc1,–,"15.8 µM [rising, single point]"
COc1cc(C(=O)NCc2ccc3c(c2)CCN3C(=O)c2ccc(Cl)cc2)cc(OC)c1OC,"14.1 µM [falling, single point]",–
Cc1ccc(NC(=O)CSc2nc(=O)n(Cc3ccccn3)c3c2CCC3)cc1F,"20 µM [falling, partial curve, poor fit]","0.794 µM [falling, full curve, poor fit]"
O=C(/C=C/c1ccc(Br)o1)NC(c1ccccc1)c1ccccc1,–,"14.1 µM [rising, single point]"
O=C(NN1CCN(Cc2ccccc2Cl)CC1)c1ccc(Cl)cc1,–,"8.91 µM [rising, partial curve, poor fit]"

# Retrieved one by one from above, 3 records:
Compound,AC50 [1],AC50 [2]
C/C(=N/OCO/N=C(\C)c1ccccc1)c1ccccc1,–,"17.8 µM [rising, single point]"
CN(C)/N=C/c1ccc(Sc2ccccc2[N+](=O)[O-])o1,"5.62 µM [rising, full curve, poor fit]","7.94 µM [rising, partial curve, poor fit]"
CCC(=O)N1CCCc2cc(S(=O)(=O)N3CCCc4ccccc43)ccc21,–,"7.94 µM [rising, single point]"

# A draw from above in order of SMILES length, high to low.
Compound,AC50 [1],AC50 [2]
CC(C)NC(=O)CSc1nnc(-c2ccc(C(C)(C)C)cc2)n1C,–,"11.2 µM [rising, partial curve, poor fit]"
O=C(NN1CCN(Cc2ccccc2Cl)CC1)c1ccc(Cl)cc1,–,"8.91 µM [rising, partial curve, poor fit]"
NC(=O)NC(=O)Cc1ccccc1,–,"0.000891 µM [rising, full curve, poor fit]"

# Following part

Compound,AC50 [1],AC50 [2]
Cc1cccc2sc(NC(=O)Cn3cccc3)nc12,–,"15.8 µM [rising, single point]"
COC(=O)c1cc(=O)c2c([N+](=O)[O-])ccc(OC)c2o1,–,"2.51 µM [falling, partial curve]"
Cc1cccc(Oc2cc([N+](=O)[O-])cc3c2C(=O)Nc2ccccc2O3)c1,"1 µM [rising, partial curve]","11.2 µM [rising, partial curve]"
CCOC(=O)c1[nH]c(C)c(C(=O)N2CCN(c3ccccc3)CC2)c1C,"4.47 µM [rising, full curve, poor fit]","1.12 µM [rising, partial curve]"
Cc1ccc(S(=O)(=O)NC(=O)c2ccc(Br)o2)c(C)c1,–,"35.5 µM [falling, single point]"
O=C(CC1OC(=O)c2ccccc21)NC1CCCCC1 (stereo unspecified),–,"0.398 µM [falling, full curve, poor fit]"
CCCCCOc1ccc(C(=O)C(c2ccccc2)N2CCOCC2)cc1 (stereo unspecified),–,"15.8 µM [rising, partial curve]"
Cc1cc(C)n(CCC(=O)N/N=C/c2ccc(O)cc2O)n1,–,"28.2 µM [rising, single point]"
COc1ccc(NC(=O)c2ccc(-c3ccccc3Cl)o2)cc1,–,"35.5 µM [rising, single point]"
Cc1ccc(O)c(C(=O)c2cnc3c(c2)COc2ccc(C)cc2-3)c1,–,"12.6 µM [rising, single point]"
Cc1ccc(NC(=S)NCc2ccc3[nH]c4c(c3c2)CCCC4)cc1,"2.51 µM [rising, single point]",–
C/C=C/c1ccc(OCC(=O)OCc2csc(Nc3ccc(C)cc3)n2)c(OC)c1,"8.91 µM [rising, partial curve, poor fit]","2 µM [rising, partial curve]"
COc1cc(/C=N/Nc2ccc(F)cc2F)cc(OC)c1OC,–,"0.0398 µM [rising, full curve, poor fit]"
O=C(COC(=O)c1cc(=O)[nH]c2ccccc12)NC1CCCC1,–,"0.00447 µM [falling, full curve, poor fit]"
COc1cccc(C(=O)Nc2ccc(C3CC3(Cl)Cl)cc2)c1 (stereo unspecified),–,"14.1 µM [rising, single point]"
O=C(Nc1ccc(N2CCOCC2)nc1)c1ccc(Cl)cc1,–,"31.6 µM [rising, single point]"
O=C(Nc1cccc(Cl)c1)N(Cc1nc2ccccc2c(=O)[nH]1)Cc1cccs1,"35.5 µM [rising, single point]","35.5 µM [rising, single point]"
N=c1n(Cc2ccccc2)c2ccccc2n1CC(O)COc1ccccc1 (stereo unspecified),"11.2 µM [rising, single point]","12.6 µM [rising, single point]"
CCn1nc(C(=O)NNC(=O)COc2ccc(OC)cc2)c2ccccc2c1=O,–,"0.0316 µM [rising, full curve, poor fit]"

Compound,AC50 [1],AC50 [2]
CC(=O)Nc1nc(-c2ccc(Br)s2)cs1,"4.47 µM [rising, full curve, poor fit]","0.562 µM [rising, full curve]"
c1ccc(CNc2ncnc3ccccc23)cc1,"12.6 µM [rising, partial curve]","8.91 µM [rising, partial curve]"
CCCn1c(SCC(=O)N2c3ccccc3Sc3ccccc32)nc2ccccc21,–,"25.1 µM [rising, single point]"
O=C(Nc1cccc(C(=O)OCc2cc(=O)n3c4c(sc3n2)CCCC4)c1)c1cccc(F)c1,"3.98 µM [falling, partial curve]",–
O=C1CC(c2ccccc2)CC(O)=C1C=NCc1ccccc1Cl (stereo unspecified),"7.08 µM [falling, partial curve]","11.2 µM [falling, partial curve]"
O=C1C=C(NC2CCCC2)CC(c2ccccc2)C1 (stereo unspecified),"11.2 µM [rising, partial curve]","0.562 µM [rising, full curve, poor fit]"
Cc1cccc(C)c1NC(=O)C1CCCCN1C (stereo unspecified),"0.708 µM [falling, partial curve, poor fit]","12.6 µM [rising, partial curve, poor fit]"
CCOC(=O)c1c(C)oc2cc(Br)c(OC(C)C(=O)OCC)cc12 (stereo unspecified),"14.1 µM [rising, single point]",–
COc1ccc(C2C(=O)c3ccccc3C2=O)cc1,"3.55 µM [rising, single point]",–
Cc1ccc(NC(=O)CSc2ccccc2NC(=O)c2cccc(Cl)c2)cc1Cl,–,"35.5 µM [rising, single point]"
O=C(Nc1ccc(Cc2ccncc2)cc1)c1cc([N+](=O)[O-])ccc1N1CCOCC1,"1.26 µM [falling, full curve]",–
Cc1cccc(C(=O)N2CCc3cc(CNC(=O)Cc4ccc(F)cc4)ccc32)c1,–,"5.01 µM [rising, full curve, poor fit]"
Cc1ccc(Cc2nc3ccccc3nc2SCC(=O)NCc2ccc(F)cc2)cc1,"0.794 µM [rising, single point]",–
CCc1ccccc1N(C)C(=O)c1cnc(N2CCOCC2)c2ccccc12,"0.0891 µM [falling, full curve, poor fit]","0.112 µM [falling, full curve, poor fit]"
CCOc1cc(/C=C/c2nc3cc(C)c(C)cc3s2)ccc1OCC(=O)N1CCOCC1,"28.2 µM [rising, partial curve, poor fit]","35.5 µM [rising, single point]"
[O-][N+]12CCN(CC1)c1ccccc12,"31.6 µM [rising, single point]","20 µM [rising, single point]"
CCC(=O)C1=C(c2cccc([N+](=O)[O-])c2)N(C(=O)CC)n2c(nnc2-c2ccccc2)S1,–,"35.5 µM [rising, partial curve, poor fit]"
CC(/C=N/NC(=O)Cc1cc(=O)[nH][nH]1)=C\c1ccccc1,"0.0224 µM [falling, full curve, poor fit]","0.0316 µM [falling, full curve, poor fit]"
